{"source": "PubChem BioAssay AID493014", "about": "(National Center for Advancing Translational Sciences (NCATS), 2011)", "note": "In all, about 340,000 compounds went through this assay and about 170 (0.05%) were called active. The shares of active, inactive and inconclusive entries below differ from those in the screen. Calls come from the whole dose curve; as a rule, active = well fitted inhibition curve with a large enough effect in the signal ratio, with a control signal flat (not every such curve was filed as active); inconclusive = small, poorly fitted or top-dose-only effect, or effect the other way, or a change in a side signal; inactive = flat fitted curve, though single readings scatter; the % refers to the signal ratio. Potencies beside an inconclusive call are fits to weak or partial responses and may not hold up. Potency is the fitted concentration of half-maximal effect."}
{"assay": "qHTS Assay to Find Inhibitors of Chronic Active B-Cell Receptor Signaling;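 for activity change, negative = inhibition: plate controls were basal doxycycline-induced cells for no effect and cells given 10 µM MG132 for full effect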", "settings": "ABC-DLBCL IkBa-CBG/CBR reporter, luminescence ratio (green luciferase fused to IkBa over red control in TMD8 lymphoma cells), 4 h; activity change, negative = inhibition: at 46.1 µM (top of the series) unless noted", "outline": "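Cell line TMD8 (human ABC DLBCL), stably expressing tet-inducible CBG68-IkBa fusion and CBR; IMDM/0.5% FBS; cpd up to 46 uM; dox induction, 4 h, 37C/5% CO2; dual luminescence; green/red ratio; MG132 control.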"}
{"smiles": "CCn1c(C)c(C)c2cc(C(=O)NC3CCCCCC3)ccc21", "Potency": "inconclusive: 1 µM [falling, partial curve, poor fit]"}
{"smiles": "CCCC(=O)N1CC(=O)Nc2ccc(C)cc2C1c1ccccc1", "note": "(stereo unspecified)", "activity change, negative = inhibition": "inconclusive: 4.76%"}
{"smiles": "O=C(Nc1sc2c(c1C(=O)O)CCC2)c1ccccc1F", "Potency": "inconclusive: 12.6 µM [falling, partial curve]"}
{"smiles": "COc1ccc(NS(=O)(=O)NC(=O)c2c(C)n(C)c3ccccc23)cc1", "activity change, negative = inhibition": "inconclusive: -14%"}
{"smiles": "CCn1cc(C(=O)N2CCCC(CO)(Cc3ccccc3C)C2)cn1", "note": "(stereo unspecified)", "activity change, negative = inhibition": "inconclusive: 9.2%"}
{"smiles": "CCNC(=S)N/N=C/c1ccc(OCC(=O)Nc2ccc(C)cc2)cc1", "Potency": "inconclusive: 0.326 µM [falling, full curve, poor fit]"}
{"smiles": "COC(=O)c1ccc(CNC(=O)CCc2c[nH]c3ccccc23)cc1", "activity change, negative = inhibition": "inconclusive: -21%"}
{"smiles": "COc1ccc(OC)c(C(=O)c2nc3c(n2O)CCCCC3)c1", "activity change, negative = inhibition": "inactive: -1.21%"}
{"smiles": "COc1ccc(/C(N)=N/OC(=O)CSc2ccccc2)cc1OC", "Potency": "inconclusive: 0.92 µM [rising, full curve]"}
{"smiles": "O=c1oc2ccc(NS(=O)(=O)c3cccc4cccnc34)cc2s1", "Potency": "inconclusive: 14.1 µM [falling, partial curve, poor fit]"}
{"smiles": "CC(=O)c1c(C)[nH]c(C(=O)CSc2nc3ccccc3n2C)c1C", "activity change, negative = inhibition": "inconclusive: -20%"}
{"smiles": "N#CC1=C(N)NC(SCc2ccccc2)=C(C#N)C12CCCCC2", "Potency": "inconclusive: 28.2 µM [cytotoxic, single point]"}
{"smiles": "Cc1ccc(-c2nc3scc(CCNS(=O)(=O)c4c(C)noc4C)n3n2)cc1", "activity change, negative = inhibition": "inconclusive: 3.28%"}
{"smiles": "Cc1cc(C)c(C#N)c(SCc2c(F)cccc2[N+](=O)[O-])n1", "Potency": "inconclusive: 10.3 µM [falling, partial curve]"}
{"smiles": "CC1=C(/C=C/C(=O)O)C(C)(C)CCC1", "activity change, negative = inhibition": "inactive: 5.46%"}
{"smiles": "CC(CCc1ccco1)NC(=O)c1cc2c(-c3ccccc3F)nn(C)c2s1", "note": "(stereo unspecified)", "activity change, negative = inhibition": "inconclusive: 21.7%"}
{"smiles": "CCC12CN(S(=O)(=O)c3ccc(C)cc3)CC(CC)(CN(S(=O)(=O)c3ccc(C)cc3)C1)C2=O", "activity change, negative = inhibition": "inconclusive: 1.9%"}
{"smiles": "CCOc1ccccc1N1CCN(S(=O)(=O)c2ccc3c4c(cccc24)C(=O)N3)CC1", "Potency": "inconclusive: 25.9 µM [falling, single point]"}
{"smiles": "O=C(NCc1ccccc1)c1cnc(-c2ccccn2)nc1C(F)(F)F", "activity change, negative = inhibition": "inconclusive: -7.38%"}
{"smiles": "Cc1ccc(-c2csc(NC(=O)CSc3nnc4c(n3)[nH]c3ccccc34)n2)cc1", "activity change, negative = inhibition": "inactive: 0.45%"}
{"smiles": "Cc1ccc(Nc2nc(-c3ccc(F)cc3)cs2)nc1", "activity change, negative = inhibition": "inconclusive: -57.2%"}
{"smiles": "CCCCN(C(=O)CSc1nnc(-c2ccccc2)o1)c1c(N)n(CCC)c(=O)[nH]c1=O", "activity change, negative = inhibition": "inconclusive: -0.5%"}
{"smiles": "CCOc1ccccc1CNC(=O)c1cc2oc3ccccc3c2n1CC", "activity change, negative = inhibition": "inactive: 15%"}
{"smiles": "O=c1[nH]cnc2c1C1(CCCC1)Cc1ccccc1-2", "activity change, negative = inhibition": "inconclusive: 7.13%"}
{"smiles": "Cc1nc2ccc(NC(=O)c3nn(CC(C)C)c(=O)c4ccccc34)cc2s1", "activity change, negative = inhibition": "inactive: -16.8%"}
{"smiles": "NCC(=O)Nc1ccc(Cl)cc1C(=O)c1ccc[nH]1", "Potency": "inconclusive: 35.5 µM [falling, single point]"}
{"smiles": "O=C1COCCOCCOCCOCC(=O)NCCN1", "activity change, negative = inhibition": "inconclusive: 3.4%"}
{"smiles": "Cc1cccc(-c2nnc3n2N=C(c2ccccc2)CS3)c1", "activity change, negative = inhibition": "inactive: -17.3%"}
{"smiles": "Cc1ccc(-c2n[nH]c3c2C(c2ccccc2)N(c2ccc(C(=O)O)cc2)C3=O)cc1", "note": "(stereo unspecified)", "activity change, negative = inhibition": "inconclusive: 6.97%"}
{"smiles": "CCOc1ccc2nc(N3CCC(C(=O)N4CCN(C5CCCCC5)CC4)CC3)sc2c1", "activity change, negative = inhibition": "inconclusive: -14%"}
{"smiles": "COc1cccc(COC(=O)C2CCN(S(=O)(=O)c3cccs3)CC2)c1OC", "activity change, negative = inhibition": "inconclusive: -3.62%"}
{"smiles": "COC(=O)c1cc(S(=O)(=O)N(C)C2CCCCC2)c[nH]1", "activity change, negative = inhibition": "inactive: -16.3%"}
{"smiles": "O=C(NC(=S)NNC(=O)c1ccccc1O)c1cccc([N+](=O)[O-])c1", "Potency": "inconclusive: 15.8 µM [falling, partial curve]"}
{"smiles": "O=C1CCCc2c1cc(C(=O)O)c(=O)n2-c1ccccc1", "activity change, negative = inhibition": "inactive: 2.26%"}
{"smiles": "NS(=O)(=O)c1ccc(NC(=O)CSc2nnc(COc3ccccc3Cl)n2C2CC2)cc1", "activity change, negative = inhibition": "inconclusive: -3.1%"}
{"smiles": "Cc1ccc(Nc2nc(N)nc(CC#N)n2)cc1", "Potency": "inconclusive: 4.61 µM [falling, single point]"}
{"smiles": "Cc1ccc(C(=O)OCC(=O)Nc2sc3c(c2C#N)CCCC3)cc1NC(=O)c1ccco1", "activity change, negative = inhibition": "inconclusive: -1%"}
{"smiles": "O=Cc1c(NCCN2CCCC2)c2ccccc2[nH]c1=O", "Potency": "inconclusive: 12.6 µM [falling, partial curve, poor fit]"}
{"smiles": "Cc1ccc2c(c1)N(CC(=O)O)C(=O)CO2", "activity change, negative = inhibition": "inconclusive: -0.485%"}
{"smiles": "O=C(NCCSc1ccccc1)c1cncc(Br)c1", "Potency": "inconclusive: 29.1 µM [falling, single point]"}
{"smiles": "COc1ccc(C)cc1NC(=O)c1ccccc1N(C)S(=O)(=O)c1ccccc1", "activity change, negative = inhibition": "inconclusive: -4.79%"}
{"smiles": "COc1ccc(-c2sc3ccc(N4CCOCC4)cc3c2-c2ccc(O)cc2)cc1", "activity change, negative = inhibition": "inconclusive: 13.6%"}
{"smiles": "CCn1c(SCC(=O)Nc2nc(-c3ccccc3)cs2)nnc1-c1ccccc1", "activity change, negative = inhibition": "inconclusive: -1.58%"}
{"smiles": "C=CCn1c(=O)c2c(nc3n2CCCN3CCc2ccccc2)n(C)c1=O", "activity change, negative = inhibition": "inconclusive: 11.9%"}
{"smiles": "Cc1ccc(Nc2nc(N)nc(CCl)n2)cc1", "activity change, negative = inhibition": "inactive: 2.8%"}
{"smiles": "Cc1c(Cl)cccc1N=Cc1ccc([N+](=O)[O-])s1", "Potency": "inconclusive: 11.2 µM [falling, partial curve]"}
{"smiles": "CC(=O)Cn1c(N2CCC(Cc3ccccc3)CC2)nc2c1c(=O)[nH]c(=O)n2C", "activity change, negative = inhibition": "inactive: 3.39%"}
{"smiles": "CC1CCCCN1Cc1nc2c(c(=O)n(C)c(=O)n2C)n1CCc1ccccc1", "note": "(stereo unspecified)", "activity change, negative = inhibition": "inconclusive: -0.275%"}
{"smiles": "CC1CCCCC1NC(=O)CSc1ccsc1[N+](=O)[O-]", "note": "(stereo unspecified)", "activity change, negative = inhibition": "inactive: 2.91%"}
{"smiles": "c1ccc(-c2nc(N3CCCC3)nc3ccccc23)cc1", "activity change, negative = inhibition": "inactive: 6.79%"}
{"smiles": "COc1ccc(/C=N/Nc2nc(Nc3ccccc3)nc(N3CCCC3)n2)cc1[N+](=O)[O-]", "activity change, negative = inhibition": "inconclusive: 15.5%"}
{"smiles": "CCCCN(C(=O)c1cccc(S(=O)(=O)N2CCN(C)CC2)c1)c1c(N)n(CCC)c(=O)[nH]c1=O", "activity change, negative = inhibition": "inactive: -7.49%"}
{"smiles": "Nc1nnc(Cc2ccccc2)s1", "activity change, negative = inhibition": "inactive: -2.47%"}
{"smiles": "Cc1ccccc1OCC(=O)NNC(=O)c1ccc(-c2ccccc2)cc1", "activity change, negative = inhibition": "inconclusive: 18.3%"}
{"smiles": "Cc1ccc2nc(N(Cc3cccnc3)C(=O)CCc3ccccc3)sc2c1", "activity change, negative = inhibition": "inconclusive: 53.6%"}
{"smiles": "Clc1c(Cl)c(Cl)c2n[nH]nc2c1Cl", "activity change, negative = inhibition": "inconclusive: 9.38%"}
{"smiles": "O=C(COC(=O)c1ccc2[nH]c3c(c2c1)CCCC3)Nc1ccccc1", "activity change, negative = inhibition": "inconclusive: -17.9%"}
{"smiles": "COCCNC(=S)N/N=C(\\C)c1ccc(-n2ccnc2)cc1", "activity change, negative = inhibition": "inactive: -1.85%"}
{"smiles": "O=C(CN1CCN(Cc2ccccc2Cl)CC1)N/N=C/C=C/c1ccccc1[N+](=O)[O-]", "Potency": "inconclusive: 5.8 µM [falling, partial curve, poor fit]"}
{"smiles": "O=S1(=O)N=C(Nc2nc3c(s2)CCCC3)c2ccccc21", "Potency": "inconclusive: 3.26 µM [cytotoxic, partial curve, poor fit]"}
{"smiles": "CC(=O)Nc1cccc(C(=O)/C=C/c2ccc(N(C)C)cc2)c1", "Potency": "inconclusive: 16.4 µM [falling, single point]"}
{"smiles": "Cc1ccc(C(=O)O/N=C(\\N)c2nonc2N)cc1", "activity change, negative = inhibition": "inactive: -6.24%"}
{"smiles": "CC(=O)Nc1ccc2nc(SCC(=O)N3CCOCC3)sc2c1", "activity change, negative = inhibition": "inconclusive: 0.016%"}
{"smiles": "CCc1nnc(NC(=O)C(NS(=O)(=O)c2ccc3c(c2)OCCO3)C(C)C)s1", "note": "(stereo unspecified)", "activity change, negative = inhibition": "inactive: -0.464%"}
{"smiles": "Cc1ccc(S(=O)(=O)Nc2ccccc2-c2ccccc2)cc1", "Potency": "inconclusive: 8.91 µM [falling, partial curve]"}
{"smiles": "CCc1nc2ccccc2c(C(=O)OCc2nnc(-c3ccccc3)o2)c1C", "activity change, negative = inhibition": "inconclusive: 1.98%"}
{"smiles": "Cc1ccc(NC(=O)c2csnn2)c(C)c1", "activity change, negative = inhibition": "inconclusive: 6.77%"}
{"smiles": "CCOC(=O)c1ccc(CN(Cc2ccc(Cl)cc2Cl)S(=O)(=O)c2cccc(Cl)c2)cc1", "activity change, negative = inhibition": "inactive: 14.7%"}
{"smiles": "CC(NC(=O)C(C(=O)c1cccc([N+](=O)[O-])c1)n1cc(Cl)ccc1=O)c1ccccc1", "note": "(stereo unspecified)", "activity change, negative = inhibition": "inactive: -1.82%"}
{"smiles": "O=C(CSc1ccc(Cl)cc1)Nc1ccc(N2CCN(C(=O)c3ccc(Cl)cc3)CC2)cc1", "activity change, negative = inhibition": "inactive: 6.65%"}
{"smiles": "COc1ccc(S(=O)(=O)n2ccc(C(C)Oc3ccc(-c4ccccc4)c(F)c3)n2)cc1", "note": "(stereo unspecified)", "activity change, negative = inhibition": "inconclusive: 19.4%"}
{"smiles": "CC1CCN(c2ccccc2NC(=O)c2ccc(F)cc2)CC1", "Potency": "inconclusive: 5.17 µM [rising, full curve]"}
{"smiles": "CCCCOCC(O)CCc1n[nH]c(=S)n1-c1ccccc1", "note": "(stereo unspecified)", "activity change, negative = inhibition": "inconclusive: -89.7%"}
{"smiles": "CC1CC(=O)N(CC(=O)Nc2ccc(F)cc2)c2ccccc2S1(=O)=O", "note": "(stereo unspecified)", "Potency": "inconclusive: 28.2 µM [falling, single point]"}
{"smiles": "COc1ccc(-c2ccc(=O)n(CC(=O)Nc3ccc4c(c3)OCCO4)n2)cc1", "Potency": "inconclusive: 35.5 µM [falling, single point]"}
{"smiles": "Cc1nc2ccc(C(=O)Nc3ccccc3Cl)cc2s1", "Potency": "inconclusive: 25.1 µM [falling, single point]"}
{"smiles": "COc1ccc(NS(=O)(=O)c2cc(NC(=O)c3ccc(=O)[nH]c3)ccc2N2CCCC2)cc1", "activity change, negative = inhibition": "inconclusive: -22.3%"}
{"smiles": "O=C(Nc1ccc(Cl)c(S(=O)(=O)N2CCOCC2)c1)c1ccc2c(c1)OCO2", "Potency": "inconclusive: 25.9 µM [falling, single point]"}
{"smiles": "COc1ccc(C)cc1NC(=O)CN(C)S(=O)(=O)c1cc(C)ccc1OC", "activity change, negative = inhibition": "inconclusive: -0.85%"}
{"smiles": "CCOC(=O)c1sc(NC(=O)CSc2nnc(Cc3ccccc3)o2)c(C#N)c1C", "activity change, negative = inhibition": "inconclusive: 10.6%"}
{"smiles": "COc1ccc(NC(=O)C(=O)c2cn(CC(=O)N3CCCC3)c3ccccc23)cc1OC", "Potency": "inconclusive: 5.62 µM [falling, partial curve]"}
